The values that follow come from paper PMC4634852.

Numbering of substitutions follows the chain as printed. No constants are given. Whether binding was seen depends on the method and setting. Binding seen in cells or lysates may run through a third protein. A result given as binding can be weak or reduced; the word gives no strength. Where a sequence is shown, tags or fusion partners need not be part of it.

The target in this test is Ik2 kinase, FLAG-tagged (Drosophila). The test can be described thus: co-IP; lysates of S2 cells co-transfected with a FLAG-tagged bait (Ik2-FLAG or Ctp-FLAG) and a myc-tagged Spn-F form; anti-FLAG M2 agarose beads on ice; lysis buffer 20 mM Tris pH 7.0, 150 mM NaCl, 2 mM EDTA, 1% TritonX-100, 1 mM DTT; immunoblot. For orientation: A western blot detects proteins with antibodies after separation by electrophoresis.

B1: Spindle-F (Spn-F), full-length, myc-tagged (protein, UniProt Q9V9Y9 1-364)
chain: MEASAAKITPMASSMSASGSTNSPSSEKMNYALQVALQTIKERCIQLQRRVASMEEENQQLREASSRSEGAPRANEIGVTGDVLSLKAQVSELQRQKEQLEEHIGMVSNENRRLWSRLSQISKDQQLNALPSSTDSRAQQNQNLVRSKTFTQHSPNPHLRQKMLSDGIKDLSLEEIALDDFGASSEELGYPYNLQKVEETTSEPDANVDAKRCLDGLQELRREAMKQQQELRSVMTLLENRIALKPCPECAQKTIKKPEMADKSLETDDSLTSELKNYESQHNGHNGTPPSQRINIIQEKIKADAADAMEKTCPMCGKQYSSQVSFNAFREHVEMHFIDDALELESENSIERQFEFVSHAVGDF
On to B1, for which the binding entry is “binds”.

B2: Spn-F-8D, phospho-mimetic mutant, myc-tagged (protein, UniProt Q9V9Y9 1-364)
chain: B1 chain with S53D, S85D, S172D, S202D, S264D, S270D, S325D, S349D
For B2, the binding entry was “binds”.

B3: Spn-F-8A, phospho-deficient mutant, myc-tagged (protein, UniProt Q9V9Y9 1-364)
chain: B1 chain with S53A, S85A, S172A, S202A, S264A, S270A, S325A, S349A
As to B3, the binding result is recorded as “binds”.
